## Results of single-concentration screens

Amino acid sequences for entries named in this document (tags omitted). Residues count along the entry.
UniProt P9WNZ1, whole entry: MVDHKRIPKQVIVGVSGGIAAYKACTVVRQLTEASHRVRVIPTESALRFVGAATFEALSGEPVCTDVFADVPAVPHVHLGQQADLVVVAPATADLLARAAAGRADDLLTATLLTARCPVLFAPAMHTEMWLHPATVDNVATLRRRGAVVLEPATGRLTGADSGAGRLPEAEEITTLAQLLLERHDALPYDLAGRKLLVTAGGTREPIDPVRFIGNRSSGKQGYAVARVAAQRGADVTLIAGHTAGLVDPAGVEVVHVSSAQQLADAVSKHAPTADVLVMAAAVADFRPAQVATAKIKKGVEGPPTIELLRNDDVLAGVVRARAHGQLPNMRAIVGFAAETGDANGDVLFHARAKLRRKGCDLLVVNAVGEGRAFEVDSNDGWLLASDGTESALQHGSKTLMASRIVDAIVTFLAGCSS
UniProt P9WFT3, whole entry: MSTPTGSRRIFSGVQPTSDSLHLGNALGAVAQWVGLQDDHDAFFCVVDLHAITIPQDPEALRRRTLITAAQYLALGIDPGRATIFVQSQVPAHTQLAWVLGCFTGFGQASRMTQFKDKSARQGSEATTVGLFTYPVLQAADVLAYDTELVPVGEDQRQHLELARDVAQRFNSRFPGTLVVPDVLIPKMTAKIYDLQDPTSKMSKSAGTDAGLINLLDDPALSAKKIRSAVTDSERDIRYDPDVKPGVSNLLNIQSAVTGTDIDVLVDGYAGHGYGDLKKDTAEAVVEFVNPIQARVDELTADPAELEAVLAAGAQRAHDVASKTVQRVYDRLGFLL
UniProt P9WPC5, whole entry: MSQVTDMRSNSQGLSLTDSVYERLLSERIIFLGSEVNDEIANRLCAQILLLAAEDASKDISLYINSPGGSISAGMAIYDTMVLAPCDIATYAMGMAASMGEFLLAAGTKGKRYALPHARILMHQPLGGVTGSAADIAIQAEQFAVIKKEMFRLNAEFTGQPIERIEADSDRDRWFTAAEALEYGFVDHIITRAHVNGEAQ
UniProt P9WPC3, whole entry partner: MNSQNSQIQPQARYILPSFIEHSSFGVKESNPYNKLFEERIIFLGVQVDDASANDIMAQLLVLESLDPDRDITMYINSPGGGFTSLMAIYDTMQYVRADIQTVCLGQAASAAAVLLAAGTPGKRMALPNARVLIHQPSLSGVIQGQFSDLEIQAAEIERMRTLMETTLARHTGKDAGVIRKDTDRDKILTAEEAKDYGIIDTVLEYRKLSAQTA
UniProt A4I591, 1-473: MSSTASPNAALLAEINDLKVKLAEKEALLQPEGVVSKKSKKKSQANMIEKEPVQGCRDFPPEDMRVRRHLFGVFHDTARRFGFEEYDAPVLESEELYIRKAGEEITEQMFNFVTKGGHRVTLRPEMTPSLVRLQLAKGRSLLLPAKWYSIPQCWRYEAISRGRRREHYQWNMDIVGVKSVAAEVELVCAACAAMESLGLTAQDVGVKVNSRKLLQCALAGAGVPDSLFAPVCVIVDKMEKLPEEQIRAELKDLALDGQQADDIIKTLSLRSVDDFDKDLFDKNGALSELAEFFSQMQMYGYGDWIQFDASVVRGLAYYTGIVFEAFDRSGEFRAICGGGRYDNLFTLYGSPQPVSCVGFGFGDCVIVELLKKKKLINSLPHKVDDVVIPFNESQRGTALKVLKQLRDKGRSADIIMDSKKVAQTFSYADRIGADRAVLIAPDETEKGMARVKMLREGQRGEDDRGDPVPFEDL
UniProt Q4DA54, 1-478: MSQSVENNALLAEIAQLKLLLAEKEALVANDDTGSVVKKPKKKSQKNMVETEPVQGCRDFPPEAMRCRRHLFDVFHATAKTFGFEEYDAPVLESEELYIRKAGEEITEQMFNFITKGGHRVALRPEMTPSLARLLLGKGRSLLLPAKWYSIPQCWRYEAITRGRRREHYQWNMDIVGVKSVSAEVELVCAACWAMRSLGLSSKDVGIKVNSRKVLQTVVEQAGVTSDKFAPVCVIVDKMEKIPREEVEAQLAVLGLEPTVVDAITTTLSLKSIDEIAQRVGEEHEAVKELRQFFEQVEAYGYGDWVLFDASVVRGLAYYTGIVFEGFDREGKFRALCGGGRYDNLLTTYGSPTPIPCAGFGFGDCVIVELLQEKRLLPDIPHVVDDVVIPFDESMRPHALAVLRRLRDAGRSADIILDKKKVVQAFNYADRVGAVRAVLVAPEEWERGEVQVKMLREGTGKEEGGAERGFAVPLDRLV

The values are deposited in ChEMBL (CHEMBL3988442, “University of Dundee, Small-Polar-MMV Screening Library” (2021)).

CoaBC: 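Enzyme assay of CoaBC with a phosphate dye (Biomol Green) read at 650 nm. Target: Coenzyme A biosynthesis protein CoaBC, Mycobacterium tuberculosis (UniProt P9WNZ1). Compounds at 30 µM. Higher reads as stronger inhibition, judged from the few compounds that gave an IC50. Most strong results did not repeat in a second test. About 67,000 compounds were tested under these conditions; 0.06% (about 40) showed 50% or more at least once.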
MtTrpRS: 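Enzyme assay of tryptophanyl-tRNA synthetase; the read-out is not stated. Target: Tryptophan-tRNA ligase, Mycobacterium tuberculosis (UniProt P9WFT3). Tested at 10 µM. Higher most likely means stronger inhibition; the record gives no direction and few retests gave an IC50. Size under these conditions: about 65,000 compounds, about 64 of them at 50% or above in at least one test.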
ClpP1P2: 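ClpP1P2, Mycobacterium tuberculosis (UniProt P9WPC5 and UniProt P9WPC3). Protease assay of ClpP1P2, read by the AMC dye that it sets free. Tested at 50 µM. Direction is inferred from only a few compounds that gave an IC50; most scored high, so higher reads as stronger inhibition. Most other retested compounds had strongly negative values. Of about 69,000 compounds tested this way, about 10 (0.015%) reached 50% or more in at least one test.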
LiHisRS: 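Enzyme assay of histidyl-tRNA synthetase; the read-out is not stated. Target: Histidine-tRNA ligase, Leishmania infantum (UniProt A4I591). Compounds at 30 µM. Higher reads as stronger inhibition (inferred: compounds with an IC50 in retests scored well above the rest). The assay is labelled LdHisRS but filed under L. infantum. Of about 69,000 compounds tested this way, about 410 (0.6%) reached 50% or more in at least one test.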
TcHisRS: 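Enzyme assay of histidyl-tRNA synthetase; the read-out is not stated. Target: Histidine-tRNA ligase, Trypanosoma cruzi CL Brener (UniProt Q4DA54). Compounds at 30 µM. Direction is inferred from retests: higher values go with stronger inhibition. Of about 69,000 compounds tested this way, about 31 (0.045%) reached 50% or more in at least one test.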

The filed quantity is “Percent Effect” (%). The controls that fix the scale are not given in the record; negative values are as filed. Compounds were drawn at random from those tested, without regard to their results. Two or more numbers in one place are separate tests of the same structure; such repeats can differ widely. A dash means the value is not listed here; it may have been measured.

| compound | CoaBC | MtTrpRS | ClpP1P2 | LiHisRS | TcHisRS |
|---|---|---|---|---|---|
| `c1cc(CCNc2ncc(-c3cnccn3)c(C3CC3)n2)ccn1` | -1.425 | 0.8832 | -13.61 | 1.408 | 0.7692 |
| `O=C(CCC1CCCC1)N1C[C@H]2CC[C@@H]1CN(Cc1ccncc1)C2` | -0.7299 | -1.235 | -1.717 | 24.44 | 16.36 |
| `CC(NC(=O)Cc1ccccc1F)C(=O)N1CCS(=O)(=O)CC1` (configuration not stated) | 1.923 | -1.499 | 1.752 | 23.29 | 3.941 |
| `CCN(Cc1nc2c(cnn2C)c(=O)[nH]1)c1ccccc1` | 7.252 | -3.067 | 4.558 | 6.087 | 1.127 |
| `CCCc1n[nH]c(C2CN(CCS(=O)(=O)CC)CCO2)n1` (configuration not stated) | 4.453 | -3.706 | -8.426 | 6.087 | 2.254 |
| `Cc1noc(-c2ccc(N3CCCC(C(=O)O)C3)nc2)n1` (configuration not stated) | 7.923 | -19.1 | 1.65 | 8.333 | 1.136 |
| `Cc1cnc(C(=O)N2CCC(COCc3ccccc3)C2)cn1` (configuration not stated) | 2.066 | -1.644 | -4.436 | 2.667 | 2.717 |
| `CS(=O)(=O)N1CCc2[nH]nc(Cc3cccs3)c2C1` | 6.777 | 6.608 | -6.562 | 16.33 | 10 |
| `O=C1N(CCCc2ccccc2)CCCC12CCN(C(CO)CO)C2` (configuration not stated) | 0.4894 | -0.7229 | -1.316 | 23.29 | 5.941 |
| `C[C@@H]1CN(C(=O)c2ccsc2)C[C@]12CCN(c1ccsc1)C2=O` | 0.5181 | 3.877 | 5.025 | 10.95 | 4.918 |
| `CCN(CC)c1ncccc1CNCc1ccc(Cl)s1` | 7.443 | 4.996 | -12.78 | 15.29 | 3.015 |
| `CC1Cc2ccccc2N1Cc1occc1C(=O)OCC(N)=O` (configuration not stated) | -1.935 | -0.5757 | 1.274 | 13.33 | 1.653 |
| `Cc1ccsc1C(=O)N1CCCn2c(nc(CN(C)C)cc2=O)C1` | -2.606 | 2.441 | -3.661 | 22.86 | 1.961 |
| `CCC(=O)N1CCC(Cc2cc(Nc3ncccn3)ncn2)CC1` | 4.167 | - | 3.751 | 15.62 | 2.128 |
| `Cc1ncc(C(=O)N2CCCC(C(=O)c3nccn3C)C2)c(O)n1` (configuration not stated) | 1.486 | -1.926 | 3.466 | 13.27 | 4 |
| `CN(CC1(O)CCCN(Cc2cccc(F)c2F)C1=O)C1CCCCC1` (configuration not stated) | -2.218 | 0 | -1.353 | 15.15 | 4.348 |
| `CNCC(=O)Nc1ccc(-c2cnc(NCCS(C)(=O)=O)nc2)cc1` | 2.048 | - | 4.434 | 17.14 | 11.3 |
| `CNS(=O)(=O)c1ccc(C(=O)N2CCCC2c2ccccc2C)o1` (configuration not stated) | 0.894 | -2.861 | -33.53 | 15.18 | 5.78 |
| `O=C(C1CCOCC1)N1C[C@@H]2CN(Cc3ccsc3)CCO[C@@H]2C1` | 0.3708 | -5.686 | 1.33 | 5 | 0 |
| `Cc1cccc(-c2nnc(C(C)NCCn3cc(C)cn3)o2)c1` (configuration not stated) | 3.419 | -3.926 | 0.01937 | 10.26 | 3.784 |
| `c1ccc(Sc2ccc3c(c2)OCO3)c(CNC2=NCCN2)c1` | -3.356 | -0.08157 | -2.971 | 35.63 | 10.31 |
| `Cc1ccc(-c2nc(CCNCc3ccncc3)co2)cc1` | 2.02 | -2.065 | -12.56 | 18.09 | 10.1 |
| `CCOc1ccc(C(=O)N2CCCC(n3ccnc3C)C2)cc1OC` (configuration not stated) | 2.389 | 23.93 | 3.013 | 3.846 | 3.429 |
| `Cc1cc(CN2CCOC(CNc3cccnn3)C2)no1` (configuration not stated) | 21.36 and 7.732 | -5.581 | -24.71 | 28.57 | 15.56 |
| `CCC1CN(C)c2ccccc2CN1CCn1cncn1` (configuration not stated) | 2.479 | -1.665 | -0.4618 | 8.036 | 6.667 |
| `CC(=O)NCCNC(=O)C1(Oc2cccnc2C)CCNCC1` | 3.433 | 0.9675 | 4.196 | 6.557 | -3.488 |
| `O=C(CC1CCN(CCc2ccccc2)CC1)N1CCCOCC1` | 0.9501 | -0.06793 | -21.48 | 7.042 | 3.077 |
| `Cc1csc(CNc2cnn(CC(C)C)c2)n1` | -4.893 | -4.18 | -6.256 | 16.95 | 2.439 |
| `CCn1ncnc1C(C)Nc1cc(C2CC2)ncn1` (configuration not stated) | 6.399 | 5.815 | 9.908 | 13.25 | 1.493 |
| `Cn1ncc2c(N3CCN(CCO)CC3)nc(C3CCCC3)nc21` | -18.43 | 1.526 | -5.439 | 23.29 | 3.96 |
| `CNS(=O)(=O)CCn1cc(-c2ccc(NC(C)=O)cc2)nn1` | 0.5115 | -2.992 | 3.702 | 6.557 | 8.081 |
| `CNC(=O)C1CCN(C(=O)c2coc(COc3ccc(OC)cc3)n2)C1` (configuration not stated) | 3.498 | 1.957 | -6.064 | 8.8 | 2.513 |
| `O=C(CC1CN(Cc2ccccc2)CCO1)NC1CCSCC1` (configuration not stated) | 1.015 | -0.1937 | -9.034 | 15.29 | -0.4484 |
| `Cc1nc(C2CCCN2C(=O)CCCn2cccn2)no1` (configuration not stated) | 1.434 | -3.771 | -11.01 | 7.692 | 2.286 |
| `CCC(c1nc(CC(C)C)nn1-c1ccccn1)n1cccn1` (configuration not stated) | -8.213 | -4.364 | -1.422 | 15.15 | 7.097 |
| `Cc1ncsc1CN(Cc1ccccc1)Cc1ncc[nH]1` | 4.087 | 0.2472 | -12.45 | 15.58 | -3.636 |
| `COCCn1cnnc1CN(C)c1nc(N)nc2c1CCCC2` | 16.38 | 3.875 | -1.169 | 19.18 | 0 |
| `CC1CCCN(C(=O)c2ccc(N(C)Cc3cnn(C)c3)nc2)C1` (configuration not stated) | 3.269 | -0.4666 | -11.84 | 16.3 | -0.9901 |
| `O=C(NC1CC1)c1cc(C(F)(F)F)cc(C(=O)NC2CC2)n1` | -2.071 | 4.432 | -3.363 | -6.25 | -3.125 |
| `CNS(=O)(=O)c1ccccc1N1CCN(C(=O)NC(C)C)CC1` | 0.9724 | 5.811 | -4.542 | 17.46 | -3.03 |
| `CCc1nnsc1C(=O)N1CCN(CC(O)CC)CC1` (configuration not stated) | -8.147 | -3.469 | -0.08948 | 23.53 | 4.762 |
| `CNC(=O)[C@@H]1C[C@@H](n2cc(-c3ccc(CN4CC=CC4)cc3)nn2)CN1` | 8.889 | -4.542 | 10.6 | 19.58 | 0.4975 |
| `CNC(=O)CN1CCC(c2cc(OC)cc(OC)c2)C1` (configuration not stated) | 5.305 | -5.498 | -6.742 | 7.895 | 3.448 |
| `O=C1CCC2(CCCN(C(=O)c3ccoc3)C2)CN1CCc1c[nH]cn1` (configuration not stated) | 6.362 | -0.7229 | -3.59 | 20.55 | -5.941 |
| `COCCN1CCC(CN(CC2CCCO2)C(=O)COC)CC1` (configuration not stated) | 6.751 | 7.773 | -12.68 | 12.5 | -0.813 |
| `CCOC(=O)CNC(=O)N1CCOC(Cc2ccc(OC)cc2)C1` (configuration not stated) | 5.366 | 1.868 | -11.26 | 5 | -3.896 |
| `CN(C)CC1(O)CCCN(c2nc(-c3ccccc3)no2)CC1` (configuration not stated) | 8.636 | -0.5948 | 5.539 | 16.44 | 3.784 |
| `Cc1nc2cc(NC(=O)Cn3ncc(N4CCCC4)cc3=O)ccc2s1` | 4.316 | -0.3003 | -18.75 | 6.452 | 1.754 |
| `CSc1nccc(N2CCN(C)C3(CCC(=O)N(CC4CC4)CC3)C2)n1` (configuration not stated) | -2.314 | 6.71 | -7.155 | 8.333 | 6.704 |
| `Cc1cc(CNC(=O)c2ccc(F)c(COCC3CC3)c2)no1` | 2.784 | -4.712 | 2.542 | 8.621 | 4.712 |
| `Cc1cc(CN2CCC3(CC2)COC(COc2ccccn2)C3)no1` (configuration not stated) | 3.759 | 1.383 | 5.158 | 20.51 | -4.878 |

Some entries from above, unchanged:

| compound | CoaBC | MtTrpRS | ClpP1P2 | LiHisRS | TcHisRS |
|---|---|---|---|---|---|
| `CCC(c1nc(CC(C)C)nn1-c1ccccn1)n1cccn1` (configuration not stated) | -8.213 | -4.364 | -1.422 | 15.15 | 7.097 |
| `Cc1nc(C2CCCN2C(=O)CCCn2cccn2)no1` (configuration not stated) | 1.434 | -3.771 | -11.01 | 7.692 | 2.286 |
| `O=C1CCC2(CCCN(C(=O)c3ccoc3)C2)CN1CCc1c[nH]cn1` (configuration not stated) | 6.362 | -0.7229 | -3.59 | 20.55 | -5.941 |
| `CNCC(=O)Nc1ccc(-c2cnc(NCCS(C)(=O)=O)nc2)cc1` | 2.048 | - | 4.434 | 17.14 | 11.3 |
| `CC(=O)NCCNC(=O)C1(Oc2cccnc2C)CCNCC1` | 3.433 | 0.9675 | 4.196 | 6.557 | -3.488 |